PubChem BioAssay AID1259308 | NCATS | 2017
The deposit covers about 59,000 reagents; shown is a part drawn at random. About 1,510 of them (2.6%) were called active. 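Calls use total luciferase alone and ignore viability, so some active siRNAs may act by altering cell number.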 Reagents against one gene are numbered here. Further read-outs or replicates are left out here. No sequences are given here.

- Screen: 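Knock-downs that increase output of a recombinant reporter protein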 (primary screen)
- System: human HEK293 embryonic kidney cells stably expressing firefly luciferase (HEK-CMV-Luc2-Hygro)
- Reagent: single siRNA against human genes, 0.8 pmol siRNA per well
- Timing: 72 h
- Measurement: 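Luciferase light (ONE-Glo) measured on one replicate plate set and viability (CellTiter-Glo) on the other, scaled to a negative control siRNA, with robust z-scores and luciferase per cell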
- Scale: total luciferase, z-score and total luciferase, % of control: higher = more reporter protein produced
- Call rule: 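Active when the median/MAD z-score for overall luciferase is greater than 3; a gene was taken forward for validation with new siRNAs if at least two of its three siRNAs passed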
- Meaning of the calls: active = raised luciferase; inactive = no rise

gene | reagent | total luciferase, z-score | total luciferase, % of control | call
SCAMP4 (GeneID 113178) | 1 | 0.271 | 87.3 | inactive
SCAMP4 (GeneID 113178) | 2 | 0.861 | 99 | inactive
SCAMP4 (GeneID 113178) | 3 | -2.26 | 36.9 | inactive
CREB3 (GeneID 10488) | 1 | 2.26 | 127 | inactive
CREB3 (GeneID 10488) | 2 | 1.43 | 110 | inactive
CREB3 (GeneID 10488) | 3 | -0.382 | 74.3 | inactive
LOC729047 (retired record) (GeneID 729047) | 1 | 2.27 | 127 | inactive
LOC729047 (retired record) (GeneID 729047) | 2 | 0.531 | 92.5 | inactive
LOC729047 (retired record) (GeneID 729047) | 3 | -0.361 | 74.7 | inactive
ST14 (GeneID 6768) | 1 | -0.354 | 74.8 | inactive
ST14 (GeneID 6768) | 2 | 1.24 | 106 | inactive
ST14 (GeneID 6768) | 3 | 1.52 | 112 | inactive
STPG4 (GeneID 285051) | 1 | -0.321 | 75.5 | inactive
STPG4 (GeneID 285051) | 2 | -0.469 | 72.6 | inactive
STPG4 (GeneID 285051) | 3 | 0.453 | 90.9 | inactive
RPP14 (GeneID 11102) | 1 | -0.614 | 69.7 | inactive
RPP14 (GeneID 11102) | 2 | -1.34 | 55.3 | inactive
RPP14 (GeneID 11102) | 3 | 0.0634 | 83.1 | inactive
LRRC75B (GeneID 388886) | 1 | 1.21 | 106 | inactive
LRRC75B (GeneID 388886) | 2 | 1.22 | 106 | inactive
LRRC75B (GeneID 388886) | 3 | -0.165 | 78.6 | inactive
COA8 (GeneID 84334) | 1 | -0.787 | 66.2 | inactive
COA8 (GeneID 84334) | 2 | -0.923 | 63.5 | inactive
COA8 (GeneID 84334) | 3 | 3.4 | 149 | active
FLT4 (GeneID 2324) | 1 | -0.255 | 76.8 | inactive
FLT4 (GeneID 2324) | 2 | 1.24 | 107 | inactive
FLT4 (GeneID 2324) | 3 | -1.18 | 58.4 | inactive
HADHB (GeneID 3032) | 1 | -0.313 | 75.7 | inactive
HADHB (GeneID 3032) | 2 | -0.449 | 73 | inactive
HADHB (GeneID 3032) | 3 | 0.556 | 92.9 | inactive
DRAP1 (GeneID 10589) | 1 | -0.273 | 76.5 | inactive
DRAP1 (GeneID 10589) | 2 | -1.45 | 53.1 | inactive
DRAP1 (GeneID 10589) | 3 | -0.387 | 74.2 | inactive
C4A (GeneID 720) | 1 | -0.253 | 76.8 | inactive
C4A (GeneID 720) | 2 | -0.295 | 76 | inactive
C4A (GeneID 720) | 3 | 0.971 | 101 | inactive
SART1 (GeneID 9092) | 1 | 2.13 | 124 | inactive
SART1 (GeneID 9092) | 2 | 3.03 | 142 | active
SART1 (GeneID 9092) | 3 | 5.89 | 199 | active
PROS1 (GeneID 5627) | 1 | -0.0944 | 80 | inactive
PROS1 (GeneID 5627) | 2 | 0.79 | 97.6 | inactive
PROS1 (GeneID 5627) | 3 | 0.054 | 83 | inactive
PCDHA8 (GeneID 56140) | 1 | 1.78 | 117 | inactive
PCDHA8 (GeneID 56140) | 2 | 0.0755 | 83.4 | inactive
PCDHA8 (GeneID 56140) | 3 | -0.393 | 74.1 | inactive
TMEM156 (GeneID 80008) | 1 | 0.446 | 90.7 | inactive
TMEM156 (GeneID 80008) | 2 | -0.219 | 77.5 | inactive
TMEM156 (GeneID 80008) | 3 | 0.259 | 87 | inactive
ACTR3C (GeneID 653857) | 1 | 1.22 | 106 | inactive
ACTR3C (GeneID 653857) | 2 | 1.65 | 115 | inactive
ACTR3C (GeneID 653857) | 3 | -0.802 | 65.9 | inactive
ZNF311 (GeneID 282890) | 1 | 1.56 | 113 | inactive
ZNF311 (GeneID 282890) | 2 | -0.428 | 73.4 | inactive
ZNF311 (GeneID 282890) | 3 | -0.158 | 78.7 | inactive
KLHL33 (GeneID 123103) | 1 | -0.528 | 71.4 | inactive
KLHL33 (GeneID 123103) | 2 | -0.821 | 65.6 | inactive
KLHL33 (GeneID 123103) | 3 | 0.223 | 86.3 | inactive
KLHL33 (GeneID 123103) | 4 | -0.728 | 67.4 | inactive
KLHL33 (GeneID 123103) | 5 | -0.138 | 79.1 | inactive
KLHL33 (GeneID 123103) | 6 | 0.567 | 93.2 | inactive
